Reference: PubChem BioAssay AID504648 (National Center for Advancing Translational Sciences (NCATS), 2011)
Hit rate of the full screen: of about 390,000 compounds, about 610 (0.16%) were called active. Inconclusive results, whose numbers are uncertain, are shown with a selection of clear calls. Calls come from the whole dose curve; as a rule, active = well fitted inhibition curve with a large enough effect; inconclusive = small, poorly fitted or top-dose-only effect, or effect the other way, or another doubt; inactive = no such curve, though single readings can be large or run the other way. Where the call is inconclusive, the potency comes from a doubtful curve fit.
% is set by controls: 0 for no effect and ±100 for the full control effect; potency is the fitted concentration of half-maximal effect.

Test: Nrf2 qHTS screen for inhibitors: counterscreen for cytotoxicity
Conditions: A549 ARE-Fluc cells, CellTiter-Fluor viability, 18-24 h; activity change, negative = cytotoxicity: at 46 µM (top of the series)
In short: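 A549 ARE_Fluc cells in 5% FBS OPTI-MEM were exposed to compounds in concentration-response for 18-24 h at 37 deg C. Viability was read by CellTiter-Fluor fluorescence (Ex 405/Em 525) after 30 min, before the luciferase read.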
With `Cc1ccc(-n2nnnc2CNC(=O)c2ccc(F)cc2)cc1C` the Potency was inconclusive: 18.4 µM [falling, partial curve, poor fit].
In the case of `COc1cc2cc(Oc3ccc4ccc(=O)oc4c3)c(=O)oc2cc1OC(=O)/C=C/c1ccccc1`, the Potency was inconclusive: 0.0291 µM [activator, full curve, poor fit].
In the case of `O=C(COc1ccc2c(-c3ccccc3)cc(=O)oc2c1)NCc1ccccn1`, the “activity change, negative = cytotoxicity” value was inactive: -0.0481%.
With `O=C(c1ccco1)N1CCN(Cc2nc(Cc3ccccc3)no2)CC1` the Potency was inconclusive: 29.1 µM [falling, single point].
For `CCC(CC)C(=O)Nc1ccc(Sc2ccc([N+](=O)[O-])cc2)cc1`, the Potency was inconclusive: 18.4 µM [falling, single point].
With `CC(C)NC1CCC(Nc2ccnc3cc(Cl)ccc23)CC1` (stereo not drawn) the Potency was inconclusive: 20.6 µM [falling, single point].
With `N=c1ccn2c(n1)O[C@H]1[C@@H](CO)[C@H](O)O[C@H]12` the “activity change, negative = cytotoxicity” value was inactive: -6.24%.
In the case of `Cc1ccccc1NC1=C/C(=N\S(=O)(=O)c2ccc(C(=O)O)cc2)c2ccccc2C1=O`, the “activity change, negative = cytotoxicity” value was inactive: -27.8%.
For `Cc1onc(-c2ccccc2Cl)c1C(=O)Oc1ccc(Br)cc1`, the Potency was inconclusive: 16.4 µM [activator, partial curve, poor fit].
In the case of `O=[N+]([O-])c1ccc(N=Nc2c(O)[nH]c3ccc(F)cc23)cc1`, the Potency was inconclusive: 23.1 µM [falling, single point].
In the case of `NC(N)=Nc1nc(-c2ccccc2)c2cc(Cl)ccc2n1`, the Potency was inconclusive: 18.4 µM [falling, single point].
In the case of `CC(C)CN(C(=O)COC(=O)C12CC3CC(CC(C3)C1)C2)c1c(N)n(Cc2ccccc2)c(=O)[nH]c1=O`, the Potency was inconclusive: 23.1 µM [falling, partial curve].
In the case of `O=Cc1ccc(N2N=C(c3ccccc3)CC2c2ccccc2)cc1` (stereo not drawn), the Potency was inconclusive: 20.6 µM [activator, single point].
For `CC(=O)c1cc(-c2ccccc2)n(CCC(=O)Nc2ccc(C(C)C)cc2)c1C`, the Potency was inconclusive: 18.4 µM [falling, single point].
For `COc1ccccc1OCCNc1cc(N2CCCCC2)ccc1[N+](=O)[O-]`, the Potency was inconclusive: 23.1 µM [falling, partial curve, poor fit].
With `CCCc1cc(=O)[nH]c(SCC(=O)c2cc(C)n(CC(F)(F)F)c2C)n1` the “activity change, negative = cytotoxicity” value was inactive: -14.7%.
For `CC(C)c1ccc(/C=N/NC(=O)CN(c2cccc(Cl)c2Cl)S(C)(=O)=O)cc1`, the Potency was inconclusive: 20.6 µM [falling, single point].
In the case of `Cc1cc(C)c(OCC(=O)Nc2nc(-c3ccccn3)cs2)c(C)c1`, the Potency was inconclusive: 2.59 µM [falling, full curve].
In the case of `COc1ccccc1OCCn1c(C(C)Oc2ccccc2)nc2ccccc21` (stereo not drawn), the Potency was inconclusive: 29.1 µM [falling, single point].
For `Cc1cc(C)cc(C(=O)Nc2c(C(=O)Nc3ccccc3F)oc3ccccc23)c1`, the “activity change, negative = cytotoxicity” value was inactive: 0.176%.
With `N=c1c(C(=O)NC2CCCCC2)cc2c(=O)n3ccccc3nc2n1Cc1cccnc1` the Potency was inconclusive: 32.6 µM [activator, partial curve, poor fit].
For `COc1ccc(NC(=O)c2cccc(S(=O)(=O)Nc3ccc(Br)cc3)c2)cn1`, the Potency was inconclusive: 29.1 µM [falling, partial curve, poor fit].
In the case of `CCOc1cc(C#N)c(NC(=O)c2cccnc2)cc1OCC`, the Potency was inconclusive: 5.17 µM [falling, partial curve, poor fit].
For `CCOc1ccccc1-n1c(SCC(=O)Nc2ccc(CC)cc2)nc2n[nH]c(C)c2c1=N`, the Potency was inconclusive: 18.4 µM [falling, single point].
With `O=C(CN1C(=O)S/C(=C\C=C\c2ccccc2)C1=O)Nc1ccc(O)cc1` the Potency was inconclusive: 29.1 µM [falling, partial curve, poor fit].
With `Cc1ccccc1CN1C(=O)C(O)(CC(=O)c2ccccc2)c2cc(Cl)ccc21` (stereo not drawn) the “activity change, negative = cytotoxicity” value was inactive: -3.18%.
In the case of `Cc1nc2ccccc2cc1C(=O)O`, the “activity change, negative = cytotoxicity” value was inactive: 9.91%.
With `Cc1ccc(S[C@@H](CCN2CC[C@H](C)CCC2=O)c2ccccc2)cc1` the “activity change, negative = cytotoxicity” value was inactive: -4.83%.
For `CCn1c(SCC(=O)c2ccc(O)c(O)c2)nnc1-c1ccc(C)cc1`, the Potency was inconclusive: 20.6 µM [falling, single point].
In the case of `Cc1ccc(NS(=O)(=O)c2cccc(C(=O)NC3CCN(Cc4ccccc4)CC3)c2)c(C)c1`, the Potency was inconclusive: 20.6 µM [falling, partial curve, poor fit].
For `Cc1ccc(CNC(=O)c2oc3ccc(S(=O)(=O)N4CCC(C)CC4)cc3c2C)cc1`, the “activity change, negative = cytotoxicity” value was inactive: -6.08%.
With `CCCCC(=O)OCC(=O)C1(O)Cc2c(O)c3c(c(O)c2C(OC2CC(NC(=O)C(F)(F)F)C(O)C(C)O2)C1)C(=O)c1c(OC)cccc1C3=O` (stereo not drawn) the Potency was inconclusive: 23.1 µM [falling, single point].
In the case of `CC(=O)c1cccc(NC(=O)Nc2cnn(Cc3ccc(Cl)cc3Cl)c2)c1`, the “activity change, negative = cytotoxicity” value was inactive: 0.199%.
With `N#Cc1c(N)nc(SCc2ccccc2)c(C#N)c1-c1ccco1` the Potency was inconclusive: 0.731 µM [falling, partial curve].
In the case of `O=C(O)CCCCNCc1ccccc1`, the “activity change, negative = cytotoxicity” value was inactive: 12.5%.
With `CCn1c(SCC(=O)N2CCC(C)CC2)nnc1-c1ccccc1O` the “activity change, negative = cytotoxicity” value was inactive: 1.03%.
With `CCOC(=O)CSc1nc2sc3c(c2c(=O)n1-c1ccc(OC)cc1)CCN(C)C3` the “activity change, negative = cytotoxicity” value was inactive: -0.871%.
In the case of `CCCCNc1ccc2c3c(cccc13)C(=O)N(CCCC)C2=O`, the Potency was inconclusive: 23.1 µM [activator, single point].
With `O=C(NN=C(Cc1ccccc1)Cc1ccccc1)c1ccncc1` the Potency was inconclusive: 29.1 µM [activator, partial curve, poor fit].
With `COc1ccc(-n2nc(C(=O)N3CCCCC3)c3ccccc3c2=O)cc1` the Potency was inconclusive: 10.3 µM [falling, partial curve, poor fit].
In the case of `Cc1ccc(N(CC(=O)NC2CCCC2)C(=O)CCC(=O)Nc2nc(C)cs2)cc1`, the “activity change, negative = cytotoxicity” value was inactive: 3.45%.
In the case of `COc1ccc(-n2c(SCC(=O)Nc3nnc(C)s3)nc3c([nH]c4ccccc43)c2=O)cc1`, the “activity change, negative = cytotoxicity” value was inactive: -18.5%.
For `CCCCCCNC(=O)CNC(=S)N(Cc1cccs1)C1CCCCC1`, the Potency was inconclusive: 29.1 µM [falling, single point].
